Consider five molecules from publication doi:10.1101/2020.09.21.305680.

T1: Sld3 (S. cerevisiae) (UniProt P53135)
T1 sequence: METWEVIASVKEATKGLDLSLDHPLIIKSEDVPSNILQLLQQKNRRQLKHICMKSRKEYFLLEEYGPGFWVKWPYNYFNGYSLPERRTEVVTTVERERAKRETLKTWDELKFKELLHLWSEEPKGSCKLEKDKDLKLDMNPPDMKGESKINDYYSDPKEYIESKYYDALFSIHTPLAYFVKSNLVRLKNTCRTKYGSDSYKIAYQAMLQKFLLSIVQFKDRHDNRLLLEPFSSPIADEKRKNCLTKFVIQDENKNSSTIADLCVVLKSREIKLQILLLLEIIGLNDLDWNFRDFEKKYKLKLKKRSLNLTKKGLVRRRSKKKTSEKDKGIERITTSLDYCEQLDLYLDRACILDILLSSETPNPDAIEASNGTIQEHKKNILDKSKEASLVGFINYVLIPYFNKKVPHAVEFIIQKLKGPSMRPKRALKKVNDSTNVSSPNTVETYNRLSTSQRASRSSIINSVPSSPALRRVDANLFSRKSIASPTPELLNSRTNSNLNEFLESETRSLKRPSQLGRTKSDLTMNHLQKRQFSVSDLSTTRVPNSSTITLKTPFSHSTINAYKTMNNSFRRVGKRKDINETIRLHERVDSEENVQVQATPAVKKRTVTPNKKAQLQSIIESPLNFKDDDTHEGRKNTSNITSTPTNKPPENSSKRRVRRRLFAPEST

T2: Sld3^Esa1(-)-3 (S. cerevisiae) (UniProt P53135)
T2 sequence: T1 sequence with P157T, T193S, V264L, P623Q

B1: Dpb11 (protein, UniProt P47027 1-764)
chain: MKPFQGITFCPTAINNEILAKKISKKIIKLGGIFSKDLTRQVNVLVVGSTTNTNKFKFAVKHRFDIIFIDIQAIDDIYQLWLSGENILPDSNTATMTGSTYEMLKILYRRFSFKYLHNFNIFIGRITDTNITSIDSLVRSIKKLGCSSYNYQNFVIKDTSSHNDDDDQGQNGQISIFVTDTLLGARVNAAIEQNIPIVHFKWILDCQKRSALLPYDPYYLLPNIKDLPYDSIGSNSCDCWDKINTTFPTNIDAQSSLQRQQSSSTLTPSLPKTSSLLNKFKPKGEKIWDKAMSLQQHSKTNFSVLGQSPLSINNKQEDLSDNSTLIFKNCAFIIHHIFPGNHRSILTKIVVQNGGKIETSYLSGIYDHSYYIIPSNKALDSFNDLPEIIDDNDGIVTEFFIERCLYYQKLLHPIDLWSKPFLSTIEFQVSSSSKLLHHEFSSSPFLNVTITGFSGVELLHLTKVLNLLKPMGINYVEYLNKSTDILLINLAALPSIPKTHPLWSNEFSDLFTQFCINNNNDDPGDNNRKDFQNNSILRNSMKRKIEYIKKFHSIPVVTPAFIFKLLSAASGENNEIFLNNIKWCIICPRGHKDDFKCKIKKPYYTSISSEKKYQNNDPKIDKTILLKRNNSSLSEHSMKDTKNELLQKIRETDSGRKKRSVSSSIMDVSSERQMPDTKRIKLESLPKNFVPKQIKRTTSWGTIMSENVPTEQPTAISNPEEIPRTEEVSHTQVTYGSIQDKKRTASLEKPMRRQTRNQTKELDS
B2: Orc2 (protein, UniProt P32833 1-620)
chain: MLNGEDFVEHNDILSSPAKSRNVTPKRVDPHGERQLRRIHSSKKNLLERISLVGNERKNTSPDPALKPKTPSKAPRKRGRPRKIQEELTDRIKKDEKDTISSKKKRKLDKDTSGNVNEESKTSNNKQVMEKTGIKEKREREKIQVATTTYEDNVTPQTDDNFVSNSPEPPEPATPSKKSLTTNHDFTSPLKQIIMNNLKEYKDSTSPGKLTLSRNFTPTPVPKNKKLYQTSETKSASSFLDTFEGYFDQRKIVRTNAKSRHTMSMAPDVTREEFSLVSNFFNENFQKRPRQKLFEIQKKMFPQYWFELTQGFSLLFYGVGSKRNFLEEFAIDYLSPKIAYSQLAYENELQQNKPVNSIPCLILNGYNPSCNYRDVFKEITDLLVPAELTRSETKYWGNHVILQIQKMIDFYKNQPLDIKLILVVHNLDGPSIRKNTFQTMLSFLSVIRQIAIVASTDHIYAPLLWDNMKAQNYNFVFHDISNFEPSTVESTFQDVMKMGKSDTSSGAEGAKYVLQSLTVNSKKMYKLLIETQMQNMGNLSANTGPKRGTQRTGVELKLFNHLCAADFIASNEIALRSMLREFIEHKMANITKNNSGMEIIWVPYTYAELEKLLKTVLNTL
B3: Eaf6 (protein, UniProt P47128 1-113)
chain: MTDELKSYEALKAELKKSLQDRREQEDTFDNLQQEIYDKETEYFSHNSNNNHSGHGGAHGSKSHYSGNIIKGFDTFSKSHHSHADSAFNNNDRIFSLSSATYVKQQHGQSQND
B4: Eaf5 (protein, UniProt P39995 1-279)
chain: MDKEVSELVVLQLIHTLISNKNEELVRNGGGINMIGNNLRISLVKLTNEIQNNLLINELTNLRRQSNVANGNRKLGINDILTIVKNLFPEYRTTLNDGQLSLHGLEMHDIEKLLDEKYDRFKKTQVEQIRMMEDEILKNGIKTGASQLQPHANAGKSGSAGTSATITTTTPHMAHSMDPKREKLLKLYRDTVLNKLESKTGNFQKLFKSPDGSIIKNEINYEDIKNETPGSVHELQLILQKSITDGVMRKVIGTDDWKLARQVQFELDDTVQFMRRALE
B5: Esa1 (aa 147–445) (domain or fragment, UniProt Q08649 147-445)
chain: KLRTSGSMTQNPHEVARVRNLNRIIMGKYEIEPWYFSPYPIELTDEDFIYIDDFTLQYFGSKKQYERYRKKCTLRHPPGNEIYRDDYVSFFEIDGRKQRTWCRNLCLLSKLFLDHKTLYYDVDPFLFYCMTRRDELGHHLVGYFSKEKESADGYNVACILTLPQYQRMGYGKLLIEFSYELSKKENKVGSPEKPLSDLGLLSYRAYWSDTLITLLVEHQKEITIDEISSMTSMTTTDILHTAKTLNILRYYKGQHIIFLNEDILDRYNRLKAKKRRTIDPNRLIWKPPVFTASQLRFAW

Residue numbers refer to the chain shown, from its start. These are yes or no findings as the source states them, for the method shown. Some entries that bind do so weakly or less than the wild type.

The first assay has as its target T1, Sld3 (S. cerevisiae). The experiment in a line: two-hybrid.
As to B1, the binding entry is “binds”.

B2: the binding result is on record as “binds”. Same read-out and setting: to B3 belongs “no binding”; to B4, “no binding”; to B5, “binds”.

For a further assay, the target named is T2, Sld3^Esa1(-)-3 (S. cerevisiae). The experiment in a line: two-hybrid.
Turning to B1, the binding entry is “binds”.

For B2, the binding result was “binds”.
